Experimental data taken from the supplement of paper PMC10849652.
Some of the results follow.

By UniProt entry, the sequences of proteins in these tests, tags left out. Where a name states a change or a piece, a line headed by the entry shows the natural chain unless it says otherwise.
UniProt Q01082, whole entry, looked up: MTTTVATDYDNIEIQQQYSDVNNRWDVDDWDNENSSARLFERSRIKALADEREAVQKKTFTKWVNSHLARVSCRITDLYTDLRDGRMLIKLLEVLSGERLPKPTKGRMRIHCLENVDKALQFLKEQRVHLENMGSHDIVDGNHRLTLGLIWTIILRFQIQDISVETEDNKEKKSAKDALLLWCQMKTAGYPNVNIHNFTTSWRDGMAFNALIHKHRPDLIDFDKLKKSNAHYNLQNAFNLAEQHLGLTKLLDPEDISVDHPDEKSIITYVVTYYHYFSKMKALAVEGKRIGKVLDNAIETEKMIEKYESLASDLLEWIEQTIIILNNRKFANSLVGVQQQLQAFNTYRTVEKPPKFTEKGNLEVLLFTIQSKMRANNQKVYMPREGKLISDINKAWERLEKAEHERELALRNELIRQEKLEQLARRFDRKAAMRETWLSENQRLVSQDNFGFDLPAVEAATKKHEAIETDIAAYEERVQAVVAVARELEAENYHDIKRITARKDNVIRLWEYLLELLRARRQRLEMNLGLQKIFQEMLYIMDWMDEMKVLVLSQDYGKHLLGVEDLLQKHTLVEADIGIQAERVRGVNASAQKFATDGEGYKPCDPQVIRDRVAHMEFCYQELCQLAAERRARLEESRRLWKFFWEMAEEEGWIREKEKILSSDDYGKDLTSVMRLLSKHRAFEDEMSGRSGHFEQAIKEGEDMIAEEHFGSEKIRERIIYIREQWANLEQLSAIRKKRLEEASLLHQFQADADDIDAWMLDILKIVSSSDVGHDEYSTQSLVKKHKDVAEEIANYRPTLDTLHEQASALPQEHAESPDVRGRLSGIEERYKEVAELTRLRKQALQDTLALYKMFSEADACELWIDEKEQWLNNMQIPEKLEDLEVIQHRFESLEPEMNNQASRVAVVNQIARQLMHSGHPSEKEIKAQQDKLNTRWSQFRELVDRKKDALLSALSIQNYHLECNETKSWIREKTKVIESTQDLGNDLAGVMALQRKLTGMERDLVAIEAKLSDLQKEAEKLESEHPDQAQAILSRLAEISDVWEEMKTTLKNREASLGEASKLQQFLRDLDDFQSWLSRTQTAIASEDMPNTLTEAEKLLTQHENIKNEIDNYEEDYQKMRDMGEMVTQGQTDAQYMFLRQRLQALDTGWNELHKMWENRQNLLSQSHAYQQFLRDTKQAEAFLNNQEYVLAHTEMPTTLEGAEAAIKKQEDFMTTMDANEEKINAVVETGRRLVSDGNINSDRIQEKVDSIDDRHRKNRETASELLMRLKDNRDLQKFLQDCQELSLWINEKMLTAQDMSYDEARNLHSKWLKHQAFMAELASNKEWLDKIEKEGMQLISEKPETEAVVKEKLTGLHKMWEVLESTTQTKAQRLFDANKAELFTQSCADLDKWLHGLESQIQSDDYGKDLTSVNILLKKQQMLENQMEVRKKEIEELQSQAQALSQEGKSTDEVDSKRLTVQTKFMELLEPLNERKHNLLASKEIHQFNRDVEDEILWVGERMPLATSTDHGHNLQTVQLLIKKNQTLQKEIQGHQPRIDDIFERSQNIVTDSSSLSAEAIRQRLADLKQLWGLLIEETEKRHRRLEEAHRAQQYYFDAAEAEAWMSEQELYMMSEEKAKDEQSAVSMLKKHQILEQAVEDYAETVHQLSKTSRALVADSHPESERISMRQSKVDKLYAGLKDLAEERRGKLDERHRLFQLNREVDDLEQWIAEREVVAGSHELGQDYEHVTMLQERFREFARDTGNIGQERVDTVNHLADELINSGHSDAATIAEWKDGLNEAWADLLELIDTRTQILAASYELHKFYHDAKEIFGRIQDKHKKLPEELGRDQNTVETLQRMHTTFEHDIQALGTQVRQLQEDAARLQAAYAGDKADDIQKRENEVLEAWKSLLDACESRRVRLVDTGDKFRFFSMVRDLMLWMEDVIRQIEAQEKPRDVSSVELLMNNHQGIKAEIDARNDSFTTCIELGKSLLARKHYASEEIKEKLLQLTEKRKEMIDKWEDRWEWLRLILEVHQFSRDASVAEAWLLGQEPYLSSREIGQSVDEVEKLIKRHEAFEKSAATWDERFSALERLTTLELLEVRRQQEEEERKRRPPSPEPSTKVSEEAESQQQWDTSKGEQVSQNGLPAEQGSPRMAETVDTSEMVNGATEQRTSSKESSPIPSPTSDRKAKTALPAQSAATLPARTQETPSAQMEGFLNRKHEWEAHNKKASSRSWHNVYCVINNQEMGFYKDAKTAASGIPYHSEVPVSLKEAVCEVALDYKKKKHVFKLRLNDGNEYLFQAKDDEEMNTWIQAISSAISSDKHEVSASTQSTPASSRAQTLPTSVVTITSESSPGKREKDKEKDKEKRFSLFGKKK
UniProt Q14849, whole entry, looked up: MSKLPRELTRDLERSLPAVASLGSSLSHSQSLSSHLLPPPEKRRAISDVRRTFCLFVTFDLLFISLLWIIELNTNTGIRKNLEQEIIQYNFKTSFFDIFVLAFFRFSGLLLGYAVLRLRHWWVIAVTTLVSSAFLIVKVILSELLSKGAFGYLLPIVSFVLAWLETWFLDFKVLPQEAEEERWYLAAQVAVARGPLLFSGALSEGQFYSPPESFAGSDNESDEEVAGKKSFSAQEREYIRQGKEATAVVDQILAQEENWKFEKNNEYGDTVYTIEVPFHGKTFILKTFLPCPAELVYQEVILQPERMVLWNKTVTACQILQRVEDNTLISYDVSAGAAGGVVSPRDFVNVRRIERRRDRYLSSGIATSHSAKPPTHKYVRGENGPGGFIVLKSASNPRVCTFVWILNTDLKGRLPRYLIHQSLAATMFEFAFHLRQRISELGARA
UniProt P35270: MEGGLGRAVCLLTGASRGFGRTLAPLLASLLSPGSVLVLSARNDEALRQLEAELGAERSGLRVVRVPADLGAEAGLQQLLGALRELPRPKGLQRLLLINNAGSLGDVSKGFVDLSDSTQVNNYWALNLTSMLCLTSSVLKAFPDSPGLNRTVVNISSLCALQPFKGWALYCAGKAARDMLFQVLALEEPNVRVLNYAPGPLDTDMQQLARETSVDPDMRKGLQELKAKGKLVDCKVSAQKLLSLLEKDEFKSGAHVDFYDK
UniProt Q01130: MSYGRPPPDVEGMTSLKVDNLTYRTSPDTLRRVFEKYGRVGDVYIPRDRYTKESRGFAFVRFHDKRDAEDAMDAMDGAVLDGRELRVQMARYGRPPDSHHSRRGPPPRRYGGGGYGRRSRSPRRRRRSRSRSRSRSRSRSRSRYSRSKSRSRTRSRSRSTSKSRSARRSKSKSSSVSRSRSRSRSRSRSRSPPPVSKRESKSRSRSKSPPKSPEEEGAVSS
UniProt Q05519: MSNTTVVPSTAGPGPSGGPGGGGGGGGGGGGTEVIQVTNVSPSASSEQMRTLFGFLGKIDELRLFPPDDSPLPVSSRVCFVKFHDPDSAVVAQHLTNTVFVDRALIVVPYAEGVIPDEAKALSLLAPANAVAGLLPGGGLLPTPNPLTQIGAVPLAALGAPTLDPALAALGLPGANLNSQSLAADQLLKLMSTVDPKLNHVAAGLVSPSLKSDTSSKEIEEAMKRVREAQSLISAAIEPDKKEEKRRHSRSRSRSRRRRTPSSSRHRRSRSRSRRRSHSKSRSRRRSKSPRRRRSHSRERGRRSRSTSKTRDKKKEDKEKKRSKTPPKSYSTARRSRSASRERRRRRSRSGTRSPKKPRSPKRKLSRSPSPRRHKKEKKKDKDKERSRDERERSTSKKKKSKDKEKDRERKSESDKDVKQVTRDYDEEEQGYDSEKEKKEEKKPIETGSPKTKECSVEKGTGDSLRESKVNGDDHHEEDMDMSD
UniProt P05455: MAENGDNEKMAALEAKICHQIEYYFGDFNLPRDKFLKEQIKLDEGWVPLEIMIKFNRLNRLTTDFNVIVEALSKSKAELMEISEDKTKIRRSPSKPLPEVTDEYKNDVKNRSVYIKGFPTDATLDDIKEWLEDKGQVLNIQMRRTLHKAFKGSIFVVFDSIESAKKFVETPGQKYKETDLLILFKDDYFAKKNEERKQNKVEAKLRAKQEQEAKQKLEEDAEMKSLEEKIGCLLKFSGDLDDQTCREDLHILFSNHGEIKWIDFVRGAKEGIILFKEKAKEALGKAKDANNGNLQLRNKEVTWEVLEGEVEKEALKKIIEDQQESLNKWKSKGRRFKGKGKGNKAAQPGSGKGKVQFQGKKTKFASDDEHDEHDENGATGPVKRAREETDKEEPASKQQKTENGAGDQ
UniProt Q9UBP0: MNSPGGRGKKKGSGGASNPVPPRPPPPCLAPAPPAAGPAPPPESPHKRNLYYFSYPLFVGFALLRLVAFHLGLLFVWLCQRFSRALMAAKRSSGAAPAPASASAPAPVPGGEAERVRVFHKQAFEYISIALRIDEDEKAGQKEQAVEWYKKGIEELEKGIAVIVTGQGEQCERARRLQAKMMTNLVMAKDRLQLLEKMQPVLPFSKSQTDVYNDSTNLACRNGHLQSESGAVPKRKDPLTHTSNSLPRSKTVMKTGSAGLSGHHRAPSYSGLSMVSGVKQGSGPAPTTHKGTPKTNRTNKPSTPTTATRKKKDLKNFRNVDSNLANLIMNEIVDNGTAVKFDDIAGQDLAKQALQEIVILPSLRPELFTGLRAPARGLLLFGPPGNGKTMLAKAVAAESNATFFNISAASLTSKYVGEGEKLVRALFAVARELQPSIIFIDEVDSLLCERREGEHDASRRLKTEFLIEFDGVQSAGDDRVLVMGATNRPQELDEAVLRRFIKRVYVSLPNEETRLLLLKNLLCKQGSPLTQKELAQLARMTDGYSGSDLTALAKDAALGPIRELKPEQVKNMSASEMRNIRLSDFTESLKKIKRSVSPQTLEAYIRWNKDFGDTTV
UniProt Q8NEF9: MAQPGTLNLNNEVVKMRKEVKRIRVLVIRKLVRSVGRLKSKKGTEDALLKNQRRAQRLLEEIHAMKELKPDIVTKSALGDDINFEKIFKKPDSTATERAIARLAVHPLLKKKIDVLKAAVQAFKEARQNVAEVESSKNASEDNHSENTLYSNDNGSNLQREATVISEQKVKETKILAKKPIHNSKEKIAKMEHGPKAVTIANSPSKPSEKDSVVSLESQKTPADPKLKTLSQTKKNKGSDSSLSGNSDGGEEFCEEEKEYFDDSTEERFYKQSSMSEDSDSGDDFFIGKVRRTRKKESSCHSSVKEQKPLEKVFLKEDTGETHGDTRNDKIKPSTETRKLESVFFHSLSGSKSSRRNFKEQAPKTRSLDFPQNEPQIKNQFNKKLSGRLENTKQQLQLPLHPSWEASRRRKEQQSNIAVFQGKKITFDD
UniProt O95772: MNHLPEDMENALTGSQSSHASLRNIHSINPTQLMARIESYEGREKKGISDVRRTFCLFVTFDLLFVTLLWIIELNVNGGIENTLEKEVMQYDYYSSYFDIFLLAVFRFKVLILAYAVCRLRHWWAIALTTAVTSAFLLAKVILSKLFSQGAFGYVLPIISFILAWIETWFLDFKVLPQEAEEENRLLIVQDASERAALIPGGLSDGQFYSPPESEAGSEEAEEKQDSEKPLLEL
UniProt Q9BWG4: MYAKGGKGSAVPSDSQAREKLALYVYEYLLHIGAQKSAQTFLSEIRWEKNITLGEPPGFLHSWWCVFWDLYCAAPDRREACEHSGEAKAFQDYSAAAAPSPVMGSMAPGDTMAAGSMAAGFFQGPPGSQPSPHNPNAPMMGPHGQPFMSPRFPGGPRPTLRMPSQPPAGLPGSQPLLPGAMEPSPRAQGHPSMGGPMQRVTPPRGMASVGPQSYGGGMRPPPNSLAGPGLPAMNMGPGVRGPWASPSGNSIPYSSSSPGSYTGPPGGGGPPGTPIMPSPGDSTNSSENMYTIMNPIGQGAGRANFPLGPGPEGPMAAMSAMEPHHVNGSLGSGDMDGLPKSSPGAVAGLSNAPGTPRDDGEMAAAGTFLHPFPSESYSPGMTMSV
UniProt P51571: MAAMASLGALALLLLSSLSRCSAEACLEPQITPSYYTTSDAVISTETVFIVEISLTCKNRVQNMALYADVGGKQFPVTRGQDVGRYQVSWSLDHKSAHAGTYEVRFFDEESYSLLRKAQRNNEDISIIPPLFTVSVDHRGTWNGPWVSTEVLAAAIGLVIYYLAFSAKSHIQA
UniProt Q9NZD8: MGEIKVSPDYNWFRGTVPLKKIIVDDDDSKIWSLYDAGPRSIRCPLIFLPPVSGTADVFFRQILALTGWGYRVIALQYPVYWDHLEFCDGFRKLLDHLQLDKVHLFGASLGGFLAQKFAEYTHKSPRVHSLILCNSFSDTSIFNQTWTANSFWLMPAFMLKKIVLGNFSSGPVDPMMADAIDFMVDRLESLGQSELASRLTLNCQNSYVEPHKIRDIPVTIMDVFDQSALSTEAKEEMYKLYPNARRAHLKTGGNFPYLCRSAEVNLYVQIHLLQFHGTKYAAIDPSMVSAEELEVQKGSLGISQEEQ

Key:
Test in all cases: log2 fold change, soluble protein after heating vs DMSO (PISA); higher = thermal stabilisation; K562 cells, 10 uM, 30 min; active = over 0.2 and 3.5 SD of the protein, either way, in both replicates (recomputed)
saracatinib = compound: CN1CCN(CCOc2cc(OC3CCOCC3)c3c(Nc4c(Cl)ccc5c4OCO5)ncnc3c2)CC1 [saracatinib]
In short: (§1)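 Values are thermal stability changes relative to control samples and are taken from duplicates. They are stated as log2 fold changes. Before quantification by TMTpro 16plex LC-MS/MS with equalised channel sums, K562 cells at 2×10^6 cells/mL were treated with 10 μM compound for 30 min, heated in aliquots for 3 min across 48°C-58°C, pooled, extracted in PBS with 0.5% NP-40 at 4°C, and centrifuged at 21,000xg for 90 min to give the soluble supernatant.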

sotrastaurin = compound: CN1CCN(c2nc(C3=C(c4c[nH]c5ccccc45)C(=O)NC3=O)c3ccccc3n2)CC1 [sotrastaurin]
In short: as §1

Tubastatin A = compound: CN1CCc2c(c3ccccc3n2Cc2ccc(C(=O)NO)cc2)C1 [Tubastatin A]
In short: as §1

[1] = compound: CNC(=O)C1=CC=CC=C1NC2=NC(=NC=C2Cl)NC3=C(C=C(C=C3)N4CCOCC4)OC
In short: as §1

defactinib = compound: CNC(=O)c1ccc(Nc2ncc(C(F)(F)F)c(NCc3nccnc3N(C)S(C)(=O)=O)n2)cc1 [defactinib]
In short: as §1

rucaparib = compound: CNCc1ccc(-c2[nH]c3cc(F)cc4c3c2CCNC4=O)cc1 [rucaparib]
In short: as §1

[2] = compound: CNc1nc(-c2ccc3c(N)n[nH]c3c2)cc(N2C[C@@H](C(=O)NC3CCCCC3)CC[C@H]2C)n1
In short: as §1

encorafenib = compound: COC(=O)N[C@@H](C)CNc1nccc(-c2cn(C(C)C)nc2-c2cc(Cl)cc(NS(C)(=O)=O)c2F)n1 [encorafenib]
In short: as §1

[3] = compound: COC(=O)[C@H](CCSC)NC(=O)C1=C(C=C(C=C1)NC[C@H](CS)N)C2=CC=CC=C2
In short: as §1

[4] = compound: COC1=CC=C(C=C1)CN2C=CC3=C2C=C(C=C3)C(=O)NO
In short: as §1

filanesib = compound: CON(C)C(=O)N1N=C(c2cc(F)ccc2F)S[C@@]1(CCCN)c1ccccc1 [filanesib]
In short: as §1

zotarolimus = compound: CO[C@H]1C[C@@H]2CC[C@@H](C)[C@@](O)(O2)C(=O)C(=O)N2CCCC[C@H]2C(=O)O[C@H]([C@H](C)C[C@@H]2CC[C@H](n3cnnn3)[C@H](OC)C2)CC(=O)[C@H](C)/C=C(\C)[C@@H](O)[C@@H](OC)C(=O)[C@H](C)C[C@H](C)/C=C/C=C/C=C/1C [zotarolimus]
In short: as §1

idasanutlin = compound: COc1cc(C(=O)O)ccc1NC(=O)[C@@H]1N[C@@H](CC(C)(C)C)[C@](C#N)(c2ccc(Cl)cc2F)[C@H]1c1cccc(Cl)c1F [idasanutlin]
In short: as §1

alisertib = compound: COc1cc(Nc2ncc3c(n2)-c2ccc(Cl)cc2C(c2c(F)cccc2OC)=NC3)ccc1C(=O)O [alisertib]
In short: as §1

[5] = compound: COc1cc2nc(-c3cc(F)ccc3O)nc(N[C@@H]3CNC[C@H]3C(C)(C)O)c2cc1OC
In short: as §1

gefitinib = compound: COc1cc2ncnc(Nc3ccc(F)c(Cl)c3)c2cc1OCCCN1CCOCC1 [gefitinib]
In short: as §1

[6] = compound: COc1cccc2cc(-c3nc([C@H]4CC[C@H](C(=O)O)CC4)n4ncnc(N)c34)[nH]c12
In short: as §1

lapatinib = compound: CS(=O)(=O)CCNCc1ccc(-c2ccc3ncnc(Nc4ccc(OCc5cccc(F)c5)c(Cl)c4)c3c2)o1 [lapatinib]
In short: as §1

pictilisib = compound: CS(=O)(=O)N1CCN(Cc2cc3nc(-c4cccc5[nH]ncc45)nc(N4CCOCC4)c3s2)CC1 [pictilisib]
In short: as §1

Target	log2 fold change (saracatinib)	log2 fold change (sotrastaurin)	log2 fold change (Tubastatin A)	log2 fold change [1]	log2 fold change (defactinib)	log2 fold change (rucaparib)	log2 fold change [2]	log2 fold change (encorafenib)	log2 fold change [3]	log2 fold change [4]	log2 fold change (filanesib)	log2 fold change (zotarolimus)	log2 fold change (idasanutlin)	log2 fold change (alisertib)	log2 fold change [5]	log2 fold change (gefitinib)	log2 fold change [6]	log2 fold change (lapatinib)	log2 fold change (pictilisib)
STK11IP (UniProt Q8N1F8)	inactive: 0.001	inactive: -0.138	inactive: 0.084	inactive: 0.097	inactive: -0.074	inactive: 0.1	inactive: -0.039	inactive: 0.265	inactive: 0.007	inactive: -0.029	inactive: 0.042	inactive: 0.195	inactive: 0.044	inactive: -0.131	inactive: -0.172	inactive: -0.072	inactive: -0.139	inactive: -0.088	inactive: 0.117
SRR (UniProt Q9GZT4)	inactive: -0.016	inactive: 0.048	inactive: 0.004	inactive: 0.085	inactive: -0.073	inactive: -0.048	inactive: -0.094	inactive: 0.017	inactive: 0.047	inactive: 0.051	inactive: -0.201		inactive: 0.004	inactive: 0.011	inactive: 0	inactive: -0.022	inactive: 0.103	inactive: 0.003	inactive: -0.003
SPTBN1 (UniProt Q01082)	inactive: -0.019	active: -0.224	inactive: 0.042	inactive: 0.048	inactive: -0.125	inactive: 0.084	inactive: -0.047	inactive: 0.064	inactive: -0.057	inactive: -0.037	inactive: 0.102	inactive: 0.045	inactive: 0.053	inactive: -0.073	inactive: 0.02	inactive: 0.084	inactive: -0.076	inactive: 0.031	inactive: 0.007
STARD3 (UniProt Q14849)	inactive: -0.043	inactive: -0.028	inactive: 0.013	inactive: -0.02	inactive: -0.035		inactive: 0.028		inactive: -0.014	inactive: 0	inactive: -0.147	inactive: -0.004	inactive: 0.109	inactive: 0.018	inactive: 0.038	inactive: 0.075	inactive: 0.035	inactive: 0.043	inactive: -0.047
SPR (UniProt P35270)	inactive: 0.318	inactive: 0.052	inactive: -0.014	inactive: -0.053	inactive: 0.237	inactive: 0.043	inactive: 0.026	inactive: -0.065	inactive: -0.021	active: 0.794	inactive: -0.087	inactive: 0	inactive: -0.225	inactive: -0.051	inactive: -0.039	inactive: -0.008	inactive: 0.021	inactive: -0.031	active: 0.681
STARD9 (UniProt Q9P2P6)	inactive: 0.051	inactive: -0.316	inactive: 0.122	inactive: -0.344	inactive: 0.144	inactive: -0.005	inactive: 0.103	inactive: 0.048	inactive: -0.03	inactive: -0.037	inactive: -0.028	inactive: 0.098	inactive: -0.035	inactive: 0.096	inactive: 0.058	inactive: -0.132	inactive: -0.185	inactive: 0.154	inactive: 0.008
SRSF2 (UniProt Q01130)	inactive: -0.008	inactive: 0.089	inactive: -0.034	inactive: -0.1	inactive: 0.052	inactive: 0.078	inactive: -0.001	inactive: -0.013	inactive: 0.076	inactive: -0.071	inactive: 0.118	inactive: 0	inactive: 0.123	inactive: -0.076	inactive: -0.003	inactive: 0.038	inactive: 0.024	inactive: 0.039	inactive: 0.027
SREK1 isoform 2 (UniProt Q8WXA9)	inactive: -0.034	inactive: -0.106	inactive: 0.061	inactive: -0.422	inactive: -0.371	inactive: 0.083	inactive: 0.013	inactive: 0.059	inactive: -0.007	inactive: 0.26	inactive: -0.1	inactive: 0.053	inactive: 0.086	inactive: -0.096	inactive: -0.072	inactive: 0.066	inactive: 0.06	inactive: 0.108	inactive: -0.001
SPECC1 (UniProt Q5M775)	inactive: -0.171	inactive: 0.093	inactive: -0.024	inactive: -0.069	inactive: 0	inactive: 0.091	inactive: -0.104	inactive: -0.015	inactive: -0.062	active: -0.357	inactive: 0.064	inactive: 0.038	inactive: -0.111	inactive: -0.019	inactive: -0.014	inactive: 0.028	active: 0.309	inactive: -0.006	inactive: 0.08
SRSF11 (UniProt Q05519)	inactive: 0.062	inactive: -0.059	inactive: 0.015	inactive: -0.243	inactive: -0.174	inactive: 0.005	inactive: -0.089	inactive: -0.016	inactive: -0.045	inactive: 0.084	inactive: 0.093	inactive: 0.012	inactive: -0.021	inactive: -0.079	inactive: 0.017	inactive: 0.023	inactive: 0.018	inactive: 0	inactive: -0.164
SSB (UniProt P05455)	inactive: -0.001	inactive: -0.158	inactive: 0.015	inactive: 0.016	inactive: -0.187	inactive: -0.031	inactive: -0.089	inactive: 0	inactive: 0.042	inactive: -0.036	inactive: 0.049	inactive: -0.063	inactive: 0	inactive: -0.046	inactive: -0.132	inactive: -0.016	inactive: -0.101	inactive: -0.031	inactive: -0.042
SPAST (UniProt Q9UBP0)	inactive: -0.016	inactive: -0.015	inactive: 0.003	inactive: -0.01	inactive: -0.056	inactive: 0.073	inactive: 0.115	inactive: 0.038	inactive: -0.037	inactive: 0.03	inactive: -0.028	inactive: -0.006	inactive: -0.038	inactive: -0.1	inactive: 0.096	inactive: -0.019	inactive: -0.042	inactive: -0.019	inactive: -0.041
SRFBP1 (UniProt Q8NEF9)	inactive: 0.038	inactive: -0.01	inactive: 0.084	inactive: 0.052		active: 0.446	inactive: -0.15	inactive: -0.057		inactive: 0.013	inactive: 0.193	inactive: -0.021	inactive: -0.018	inactive: -0.027	inactive: 0.306	inactive: 0.06	inactive: -0.072	inactive: 0.13	inactive: -0.065
STARD3NL (UniProt O95772)	inactive: 0.103	inactive: -0.004	inactive: -0.05	inactive: 0.013	inactive: -0.007	inactive: -0.164	inactive: -0.052	inactive: 0.068	inactive: -0.046	inactive: -0.005	inactive: -0.082	inactive: -0.054	inactive: -0.19	inactive: -0.056	inactive: 0.095	inactive: 0.048	inactive: 0.075	inactive: -0.048	inactive: 0.024
SSBP4 (UniProt Q9BWG4)	active: 0.409	inactive: 0	inactive: 0.038	inactive: -0.184		inactive: 0.022	inactive: 0.031	inactive: -0.18		inactive: -0.065	inactive: -0.601		inactive: 0.122	inactive: 0.018	inactive: 0.076	inactive: -0.001	inactive: 0.029	inactive: -0.145	inactive: 0.117
SSR4 (UniProt P51571)	inactive: -0.008	inactive: 0.013	inactive: 0.006	inactive: 0.014	inactive: 0.015	inactive: 0	inactive: 0.004	inactive: -0.028	inactive: -0.007	inactive: -0.015	inactive: -0.052	inactive: 0.036	inactive: -0.012	inactive: -0.004	inactive: 0.08	inactive: -0.023	inactive: 0.047	inactive: -0.05	inactive: 0.106
SPG21 (UniProt Q9NZD8)	inactive: 0.007	inactive: -0.005	inactive: 0.016	inactive: -0.015	inactive: -0.134	inactive: 0.089	inactive: 0.211	inactive: -0.022	inactive: 0.01	inactive: -0.026	inactive: 0	inactive: 0.063	inactive: 0.03	inactive: -0.084	inactive: 0.174	inactive: 0.226	inactive: 0.011	inactive: 0.072	inactive: 0.064
SPHK2 isoform 5 (UniProt Q9NRA0)		inactive: -0.007									inactive: 0.046				inactive: -0.128			inactive: 0.012	

Shown in CSV form: entries from further up
Target,log2 fold change (saracatinib),log2 fold change (sotrastaurin),log2 fold change (Tubastatin A),log2 fold change [1],log2 fold change (defactinib),log2 fold change (rucaparib),log2 fold change [2],log2 fold change (encorafenib),log2 fold change [3],log2 fold change [4],log2 fold change (filanesib),log2 fold change (zotarolimus),log2 fold change (idasanutlin),log2 fold change (alisertib),log2 fold change [5],log2 fold change (gefitinib),log2 fold change [6],log2 fold change (lapatinib),log2 fold change (pictilisib)
SPR (UniProt P35270),inactive: 0.318,inactive: 0.052,inactive: -0.014,inactive: -0.053,inactive: 0.237,inactive: 0.043,inactive: 0.026,inactive: -0.065,inactive: -0.021,active: 0.794,inactive: -0.087,inactive: 0,inactive: -0.225,inactive: -0.051,inactive: -0.039,inactive: -0.008,inactive: 0.021,inactive: -0.031,active: 0.681
STARD9 (UniProt Q9P2P6),inactive: 0.051,inactive: -0.316,inactive: 0.122,inactive: -0.344,inactive: 0.144,inactive: -0.005,inactive: 0.103,inactive: 0.048,inactive: -0.03,inactive: -0.037,inactive: -0.028,inactive: 0.098,inactive: -0.035,inactive: 0.096,inactive: 0.058,inactive: -0.132,inactive: -0.185,inactive: 0.154,inactive: 0.008
SRSF2 (UniProt Q01130),inactive: -0.008,inactive: 0.089,inactive: -0.034,inactive: -0.1,inactive: 0.052,inactive: 0.078,inactive: -0.001,inactive: -0.013,inactive: 0.076,inactive: -0.071,inactive: 0.118,inactive: 0,inactive: 0.123,inactive: -0.076,inactive: -0.003,inactive: 0.038,inactive: 0.024,inactive: 0.039,inactive: 0.027
